In PMC6336687:
No constants are given. Whether binding was seen depends on the method and setting. In cells and extracts the contact can be indirect. Some entries that bind do so weakly or less than the wild type. Tags and fused reporters may be left off the sequences shown.

Chains of the proteins cited; added tags and fusions are not shown.
UniProt Q15910: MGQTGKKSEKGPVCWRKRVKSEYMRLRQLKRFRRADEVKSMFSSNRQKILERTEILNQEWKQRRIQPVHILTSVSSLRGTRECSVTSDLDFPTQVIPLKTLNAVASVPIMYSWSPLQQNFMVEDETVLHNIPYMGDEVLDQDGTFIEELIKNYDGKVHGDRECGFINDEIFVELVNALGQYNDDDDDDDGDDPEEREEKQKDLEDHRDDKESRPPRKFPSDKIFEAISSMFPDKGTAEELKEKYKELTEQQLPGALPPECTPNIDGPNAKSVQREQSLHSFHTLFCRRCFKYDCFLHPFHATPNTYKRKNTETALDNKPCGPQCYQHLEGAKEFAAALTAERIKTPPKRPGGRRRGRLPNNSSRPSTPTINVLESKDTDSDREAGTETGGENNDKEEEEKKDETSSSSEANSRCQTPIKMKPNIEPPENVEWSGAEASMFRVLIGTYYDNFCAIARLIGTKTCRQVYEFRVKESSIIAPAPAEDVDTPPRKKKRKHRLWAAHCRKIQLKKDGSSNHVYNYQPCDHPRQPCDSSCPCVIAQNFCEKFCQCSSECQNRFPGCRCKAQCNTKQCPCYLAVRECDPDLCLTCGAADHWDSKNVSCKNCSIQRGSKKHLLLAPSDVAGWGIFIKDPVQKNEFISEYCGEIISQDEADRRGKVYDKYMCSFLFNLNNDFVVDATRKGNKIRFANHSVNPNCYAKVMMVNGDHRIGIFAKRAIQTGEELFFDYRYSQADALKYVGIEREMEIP

Target: histone methyltransferase enhancer of zeste homolog 2 (EZH2), endogenous (human (endogenous in SW480)) (UniProt Q15910)
Experiment: co-IP; total lysates of SW480 cells expressing OGT-FLAG, IP with FLAG Ab or EZH2 Ab, western blotting

B1: O-GlcNAcylation transferase (OGT), FLAG-tagged, overexpressed in SW480 cells (enzyme, UniProt O15294-1 1-1046)
chain: MASSVGNVADSTEPTKRMLSFQGLAELAHREYQAGDFEAAERHCMQLWRQEPDNTGVLLLLSSIHFQCRRLDRSAHFSTLAIKQNPLLAEAYSNLGNVYKERGQLQEAIEHYRHALRLKPDFIDGYINLAAALVAAGDMEGAVQAYVSALQYNPDLYCVRSDLGNLLKALGRLEEAKACYLKAIETQPNFAVAWSNLGCVFNAQGEIWLAIHHFEKAVTLDPNFLDAYINLGNVLKEARIFDRAVAAYLRALSLSPNHAVVHGNLACVYYEQGLIDLAIDTYRRAIELQPHFPDAYCNLANALKEKGSVAEAEDCYNTALRLCPTHADSLNNLANIKREQGNIEEAVRLYRKALEVFPEFAAAHSNLASVLQQQGKLQEALMHYKEAIRISPTFADAYSNMGNTLKEMQDVQGALQCYTRAIQINPAFADAHSNLASIHKDSGNIPEAIASYRTALKLKPDFPDAYCNLAHCLQIVCDWTDYDERMKKLVSIVADQLEKNRLPSVHPHHSMLYPLSHGFRKAIAERHGNLCLDKINVLHKPPYEHPKDLKLSDGRLRVGYVSSDFGNHPTSHLMQSIPGMHNPDKFEVFCYALSPDDGTNFRVKVMAEANHFIDLSQIPCNGKAADRIHQDGIHILVNMNGYTKGARNELFALRPAPIQAMWLGYPGTSGALFMDYIITDQETSPAEVAEQYSEKLAYMPHTFFIGDHANMFPHLKKKAVIDFKSNGHIYDNRIVLNGIDLKAFLDSLPDVKIVKMKCPDGGDNADSSNTALNMPVIPMNTIAEAVIEMINRGQIQITINGFSISNGLATTQINNKAATGEEVPRTIIVTTRSQYGLPEDAIVYCNFNQLYKIDPSTLQMWANILKRVPNSVLWLLRFPAVGEPNIQQYAQNMGLPQNRIIFSPVAPKEEHVRRGQLADVCLDTPLCNGHTTGMDVLWAGTPMVTMPGETLASRVAASQLTCLGCLELIAKNRQEYEDIAVKLGTDLEYLKKVRGKVWKQRISSPLFNTKQYTMELERLYLQMWEHYAAGNKPDHMIKPVEVTESA
binding: binds
